Test results published in paper PMC10321293.
These are yes or no findings as the source states them, for the method shown. Binding seen in cells or lysates may run through a third protein. Some entries that bind do so weakly or less than the wild type.

Amino acid sequences for entries named in this document (tags omitted).
UniProt O55013: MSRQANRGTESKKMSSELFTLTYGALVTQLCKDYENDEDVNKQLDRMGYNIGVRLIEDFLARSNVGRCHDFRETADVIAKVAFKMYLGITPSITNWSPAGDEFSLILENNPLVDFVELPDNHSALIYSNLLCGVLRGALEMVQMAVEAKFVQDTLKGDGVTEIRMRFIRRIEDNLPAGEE
UniProt Q9ES56: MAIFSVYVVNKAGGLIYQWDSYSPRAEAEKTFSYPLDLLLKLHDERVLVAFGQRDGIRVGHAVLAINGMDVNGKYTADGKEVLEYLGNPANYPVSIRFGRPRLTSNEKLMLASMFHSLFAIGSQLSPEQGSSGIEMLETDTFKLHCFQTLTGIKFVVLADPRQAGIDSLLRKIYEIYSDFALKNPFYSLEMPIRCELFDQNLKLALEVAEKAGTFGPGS

Biological target: mTrappc3 (mouse (endogenous in mouse brain)) (UniProt O55013)
Test: co-IP; brain tissue lysate (RIPA buffer, 500 ug) of mTrappc9^+/+ and mTrappc9^m/m mice; TRAPPC3 antibody 1:500 at 4 C for 2 h or overnight; protein A magnetic beads; washed with PBS; western blot

## mTrappc4 (from UniProt Q9ES56 1-219)
  binding: binds
